Values from PubChem BioAssay AID602196 (INSERM, 2012)

Screen: 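Knock-downs that protect lung cancer cells from cisplatin or sensitise them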
Cell system: human A549 lung cancer cells
Knock-down reagent: siRNA pair against human genes
Duration: 48 h transfection before cisplatin; time from cisplatin to read-out not stated
Treatment: cisplatin at a dose killing half of control-siRNA cells; exact dose and duration not given
Read-out: 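Shift in cisplatin death relative to control siRNA, from -50 (all cells die) to +50 (no cells die); siRNAs harmful on their own scored 0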
Direction: two-siRNA summed score (-2 to +2): higher = both siRNAs protect from cisplatin killing; -2 means both sensitise
Call rule: 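Each siRNA scores 0 if harmful alone by LDH or WST-1, otherwise +1 if it reduces and -1 if it increases cisplatin killing; a gene is active when both siRNAs agree (sum +2 or -2)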
Meaning of the calls: active = both siRNAs shift cisplatin killing the same way; inactive = no consistent shift, or siRNA harmful alone
This is an unselected part of about 23,000 deposited reagents. 455 of all reagents (2%) were called active. 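Active includes both protection and sensitisation; some change values fall well beyond the stated -50 to +50 range.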 Entries without a mark were called inactive. Not all columns of the deposit are shown. Not stated in the record: the amount of reagent.

Silencing of L1TD1 gave: two-siRNA summed score (-2 to +2) = 0.
For ATP13A2 the deposit lists two-siRNA summed score (-2 to +2) = 0.
For LAMB2, the entry reads two-siRNA summed score (-2 to +2) = 0.
For TUFM, the entry reads two-siRNA summed score (-2 to +2) = 0.
KRTAP10-4 showed two-siRNA summed score (-2 to +2) = 0.
FN3KRP showed two-siRNA summed score (-2 to +2) = 2 (active).
After knock-down of COL3A1, the record shows two-siRNA summed score (-2 to +2) = 1.
For SUGCT, the values are two-siRNA summed score (-2 to +2) = 0.
Depletion of DHDH resulted in: two-siRNA summed score (-2 to +2) = 1.

Entries above marked active (1):
FN3KRP — two-siRNA summed score (-2 to +2): 2 (active)

Next entries:
For SAT2 the deposit lists two-siRNA summed score (-2 to +2) = 0.
For GGT1 the deposit lists two-siRNA summed score (-2 to +2) = 0.
Knock-down of FBXL19 gave: two-siRNA summed score (-2 to +2) = 0.
Knock-down of LOC400602 gave: two-siRNA summed score (-2 to +2) = 0.
With knock-down of ATP2C2, the screen gave two-siRNA summed score (-2 to +2) = 0.
Silencing of LINC01270 gave: two-siRNA summed score (-2 to +2) = 0.
Depletion of MBNL3 came out at: two-siRNA summed score (-2 to +2) = 0.
For CCDC185, the entry reads two-siRNA summed score (-2 to +2) = 0.
Depletion of RECQL4 resulted in: two-siRNA summed score (-2 to +2) = -1.
With knock-down of NEK2, the screen gave two-siRNA summed score (-2 to +2) = 2 (active).
METTL8 showed two-siRNA summed score (-2 to +2) = 0.
EPC2 gave two-siRNA summed score (-2 to +2) = 0.
